Measured values taken from PubChem BioAssay AID2517 (National Center for Advancing Translational Sciences (NCATS), 2010).
Among all 350,000 compounds or so, about 1,200 (0.34%) were called active. Inconclusive results, whose numbers are uncertain, are shown with a selection of clear calls. Calls come from the whole dose curve; as a rule, active = well fitted inhibition curve with a large enough effect; inconclusive = small, poorly fitted or top-dose-only effect; inactive = no such curve, though single readings can be large or run the other way. Potencies beside an inconclusive call are fits to weak or partial responses and may not hold up.

By UniProt entry, the sequences of proteins in these tests, tags left out.
UniProt P27695, whole entry, looked up: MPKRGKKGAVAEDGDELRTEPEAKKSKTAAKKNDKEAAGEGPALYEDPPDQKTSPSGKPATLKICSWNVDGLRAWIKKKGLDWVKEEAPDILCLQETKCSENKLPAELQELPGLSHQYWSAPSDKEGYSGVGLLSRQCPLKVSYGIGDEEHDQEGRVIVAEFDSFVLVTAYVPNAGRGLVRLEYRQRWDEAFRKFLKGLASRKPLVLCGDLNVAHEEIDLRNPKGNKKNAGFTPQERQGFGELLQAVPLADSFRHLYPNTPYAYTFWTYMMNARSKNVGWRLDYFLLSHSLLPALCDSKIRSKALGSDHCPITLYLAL

Molecular target: DNA repair nuclease/redox regulator APEX1 (Homo sapiens) (UniProt P27695)
Assay: qHTS Assay for Inhibitors of the Human Apurinic/apyrimidinic Endonuclease 1 (APE1); note: nearly all actives have a fitted effect of over 55% in size;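 for activity change, negative = inhibition: plate controls were vehicle for no effect and reference inhibitor for full effect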
Settings: recombinant APE1, TAMRA/BHQ-2 abasic DNA cleavage fluorescence; activity change, negative = inhibition: at 65.8 µM (top of the series)
How it was run: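 Compound pre-exposure to 0.75 nM APE1, 15 min at ambient temperature. Reaction initiated with 50 nM TAMRA/BHQ-2 THF substrate, read immediately in kinetic mode, 525 nm excitation, 598 nm emission.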
Potency is the fitted concentration of half-maximal effect.

With `CC(C)c1cc(C(C)C)n2nc(N)nc2n1` as the compound, how does the Potency read?
Its Potency is inconclusive: 7.94 µM [inhibitor, single point].

`Cc1c(O)ccc2c1OCO2` was tested. Which Potency did it give?
The Potency was inconclusive: 7.94 µM [inhibitor, single point].

How did the “activity change, negative = inhibition” value turn out when `Cc1nnc(N/N=C\c2ccc(-c3ccccc3[N+](=O)[O-])o2)n1N` was run?
The value was inactive: 4.77%.

How did the Potency turn out when `CCCNC(=O)NC(=O)CSc1nncs1` was run?
The Potency was inconclusive: 0.0316 µM [inhibitor, full curve].

For `O=C1CC(SC(=Nc2ccccc2)Nc2ccccc2)C(=O)N1c1ccc(Cl)cc1` (configuration not stated), which Potency is on record?
Its Potency is inconclusive: 0.562 µM [inhibitor, single point].

With `O=c1c(CCc2ccccc2)nc2cnc(N3CCOCC3)nc2n1-c1ccccc1` as the compound, how does the Potency read?
Its Potency is inconclusive: 5.01 µM [inhibitor, partial curve, poor fit].

How did the “activity change, negative = inhibition” value turn out when `O=[N+]([O-])c1cc(Br)cc(C=Nc2ccc3c(c2)OCO3)c1O` was run?
Its value is inactive: -5.48%.

With `CC(=O)c1sc(C(=O)O)c(-c2ccco2)c1-c1ccco1` as the compound, how does the Potency read?
The Potency was inconclusive: 39.8 µM [inhibitor, single point].

`COC(=O)c1[nH]c2ccccc2c1NC(=O)CN1CCN(c2cccc(Cl)c2)CC1` was tested. Which Potency did it give?
Its Potency is inconclusive: 1.78 µM [inhibitor, partial curve, poor fit].

`CCOc1ccc(C2c3[nH]c4ccccc4c3CCN2Cc2cccn2-c2ncccn2)cc1` (configuration not stated) was tested. Which Potency did it give?
Its Potency is inconclusive: 44.7 µM [inhibitor, single point].

How did the Potency turn out when `O=S(=O)(NCc1c(Cl)cccc1Oc1ccccc1)c1ccccc1` was run?
The Potency was inconclusive: 1.26 µM [inhibitor, partial curve, poor fit].

How did the Potency turn out when `COc1ccc(-n2nc([N+](=O)[O-])c(=NCCc3ccc(Cl)cc3)n2O)cc1` was run?
Its Potency is inconclusive: 10 µM [inhibitor, single point].

With `COc1ccc(C(=O)N(Cc2ccccc2)c2cccc(C)c2)cc1` as the compound, how does the Potency read?
Its Potency is inconclusive: 21.2 µM [inhibitor, single point].

With `N#C/C(=C\c1ccncc1)c1nc2ccccc2c(=O)[nH]1` as the compound, how does the Potency read?
The Potency was inconclusive: 17.8 µM [inhibitor, partial curve, poor fit].

Which “activity change, negative = inhibition” value does the source give for `Cc1c(N2C(=O)CS/C2=N\N=C\c2ccc(Br)cc2)c(=O)n(-c2ccccc2)n1C` here?
Its value is inactive: 0.0267%.

For `CCn1c(SCC(=O)N/N=C/C(C)=C/c2ccco2)nnc1-c1ccccc1`, which Potency is on record?
The Potency was inconclusive: 31.6 µM [inhibitor, single point].

Which Potency does the source give for `O=S(=O)(Nc1cc(Sc2cccc3cccnc23)c(O)c2ccccc12)c1ccccc1` here?
The Potency was inconclusive: 20 µM [inhibitor, single point].

How did the Potency turn out when `Cn1c(=O)[nH]c(=O)c2c1nc(N1CCCCCC1)n2CCSc1nc2ccccc2o1` was run?
The Potency was inconclusive: 3.98 µM [inhibitor, single point].

How did the “activity change, negative = inhibition” value turn out when `Cc1cccc(C)c1NC(=O)/C(C#N)=C/c1ccc(-c2ccc(C(=O)O)cc2)o1` was run?
The value was inactive: -0.595%.

Which Potency does the source give for `COc1ccc(/C=C\C(=O)NCc2ccc3[nH]c(C)cc3c2)cc1OC` here?
Its Potency is inconclusive: 3.55 µM [inhibitor, single point].

With `CCCCNC(=O)OC1CCS(=O)(=O)C1` (configuration not stated) as the compound, how does the Potency read?
Its Potency is inconclusive: 44.7 µM [inhibitor, single point].

With `O=C(O)CCC/C=C\C[C@@H]1[C@@H](CC[C@@H](O)CCc2ccccc2)[C@H](O)C[C@@H]1O` as the compound, how does the “activity change, negative = inhibition” value read?
Its value is inactive: 15.7%.

How did the “activity change, negative = inhibition” value turn out when `Cc1ccc(-c2nn(CCC(=O)O)cc2CCC(=O)O)cc1` was run?
Its value is inactive: 2.7%.

How did the Potency turn out when `Cc1ccc(CSc2nnc(-c3ccccc3N)c(=O)[nH]2)cc1` was run?
Its Potency is inconclusive: 3.98 µM [inhibitor, single point].

`COc1cccc2c(N/N=C/c3ccc(O)c(O)c3)cc(C)nc12` was tested. Which “activity change, negative = inhibition” value did it give?
Its value is inactive: -11.9%.

`Cc1ccc(C(=O)NCC(=O)N2CCN(c3ncccn3)CC2)s1` was tested. Which Potency did it give?
Its Potency is inconclusive: 35.5 µM [inhibitor, single point].

For `COc1ccc(C2/C(=C(/O)c3ccccc3)C(=O)C(=O)N2c2ccccn2)c(OC)c1` (configuration not stated), which Potency is on record?
The Potency was inconclusive: 39.8 µM [inhibitor, single point].

`CC(=O)NS(=O)(=O)c1ccc(NC(=O)/C=C/c2ccc(C)o2)cc1` was tested. Which Potency did it give?
The Potency was inconclusive: 31.6 µM [inhibitor, single point].

Which Potency does the source give for `O=C(CSc1nc2nc(-c3cccs3)cc(C(F)(F)F)c2c(=O)[nH]1)Nc1ccc(F)c(F)c1` here?
The Potency was inconclusive: 6.31 µM [inhibitor, partial curve, poor fit].

Which Potency does the source give for `Cc1oc(C(=O)O)cc1CSCc1ccoc1C(=O)O` here?
The Potency was inconclusive: 31.6 µM [inhibitor, partial curve].

How did the “activity change, negative = inhibition” value turn out when `NNC(=O)c1oc2nc(-c3cccs3)cc(-c3ccco3)c2c1N` was run?
Its value is inactive: -24.6%.

How did the “activity change, negative = inhibition” value turn out when `Cc1ccc(CNC(=O)c2cc(S(=O)(=O)N3CCCC3)cn2C)cc1` was run?
The value was inactive: 22.6%.

With `CC1(C)S[C@H]2[C@@H](NC(=O)C(N)c3ccccc3)C(=O)N2[C@H]1C(=O)O` (some centres not stated) as the compound, how does the Potency read?
Its Potency is active: 20 µM.

For `Nc1nc(SCC(=O)c2cccs2)n[nH]1`, which Potency is on record?
Its Potency is inconclusive: 11.2 µM [inhibitor, partial curve, poor fit].

For `Cc1cccc(-c2nnn3c2nc(NCCc2ccc(S(N)(=O)=O)cc2)c2ccccc23)c1`, which “activity change, negative = inhibition” value is on record?
Its value is inactive: 6.27%.

Which Potency does the source give for `COc1ccc(CCn2c(O)cc3nn(-c4nc5ccccc5s4)c(=O)c-3c2C)cc1` here?
Its Potency is active: 31.6 µM.

`Cc1cc(C)c2nc(NNC(=O)c3ccc(S(=O)(=O)N4CCCCC4)cc3)sc2c1` was tested. Which Potency did it give?
Its Potency is inconclusive: 3.16 µM [inhibitor, single point].

For `O=C(/C=C/c1ccc(N2CCC(c3ccccc3)=N2)cc1)c1ccccc1`, which “activity change, negative = inhibition” value is on record?
The value was inactive: 5%.

Which “activity change, negative = inhibition” value does the source give for `CCC(CC)=NNc1ccc([N+](=O)[O-])cc1[N+](=O)[O-]` here?
The value was inactive: 20.7%.

Which Potency does the source give for `Cc1cc(N2CCOCC2)nc2ccc(NC(=O)CCC(=O)N3CCCCC3)cc12` here?
The Potency was inconclusive: 1.58 µM [inhibitor, full curve].

How did the Potency turn out when `C=C1c2c(Cl)ccc(O)c2C(O)=C2C(=O)[C@]3(O)C(O)=C(C(N)=O)C(=O)C(N(C)C)C3C(O)C12` (some centres not stated) was run?
Its Potency is inconclusive: 0.891 µM [inhibitor, full curve].

`Fc1ccc(-c2nn3c(C4COc5ccccc5O4)nnc3s2)cc1` (configuration not stated) was tested. Which “activity change, negative = inhibition” value did it give?
Its value is inactive: 27.4%.

How did the Potency turn out when `COc1ccc(C(=O)N(Cc2ccco2)C(C(=O)NC2CCCC2)c2ccc(O)cc2)cc1OC` (configuration not stated) was run?
The Potency was inconclusive: 0.0501 µM [inhibitor, full curve].

With `O=C(COC(=O)/C=C/c1ccco1)NCCc1ccccc1` as the compound, how does the Potency read?
Its Potency is inconclusive: 25.1 µM [inhibitor, partial curve].

How did the “activity change, negative = inhibition” value turn out when `O=C(N/N=C\C=C\c1ccco1)c1cncc(Br)c1` was run?
The value was inactive: -1.7%.

With `O=C(O)CC/C(=C\c1cccc(NC(=O)c2ccccc2Cl)c1)c1nc2ccccc2s1` as the compound, how does the Potency read?
The Potency was inconclusive: 39.8 µM [inhibitor, single point].

With H-DMHDFFPGLM-NH2 as the compound, how does the Potency read?
Its Potency is inconclusive: 28.2 µM [inhibitor, partial curve].

`Cc1csc(NC(=O)CSc2nc(C(C)C)nc3ccccc23)n1` was tested. Which activity change, negative = inhibition did it give?
The activity change, negative = inhibition was inactive: 25.6% [at 12.4 µM].

With `CNc1ccc(/C=C/C(=O)c2ccc3c(c2)OCCO3)cc1[N+](=O)[O-]` as the compound, how does the Potency read?
Its Potency is inconclusive: 12.6 µM [inhibitor, partial curve, poor fit].

Which “activity change, negative = inhibition” value does the source give for `NN1C(=O)c2cccc3c(C(=O)O)ccc(c23)C1=O` here?
Its value is inactive: -7.5%.

How did the “activity change, negative = inhibition” value turn out when `CCN(CC)CCOc1ccc(Br)cc1` was run?
Its value is inactive: 1.17%.

For `CC(C)(C)OC(=O)NCCCC[C@H](NC(=O)c1nc[nH]c1C(=O)N[C@@H](CCCCNC(=O)OC(C)(C)C)C(=O)OC(C)(C)C)C(=O)OC(C)(C)C`, which Potency is on record?
Its Potency is inconclusive: 10 µM [inhibitor, partial curve].

For `O=c1c(-c2cc(F)cc(F)c2)nc2cncnc2n1C1CC1`, which Potency is on record?
The Potency was inconclusive: 100 µM [inhibitor, partial curve].

With `C=CCCN(C(Cc1ccccc1)C(=O)OC)S(=O)(=O)c1cc(Br)ccc1Br` (configuration not stated) as the compound, how does the “activity change, negative = inhibition” value read?
The value was inactive: -1.9%.

`Clc1ccccc1N/N=C/c1ccc2c(c1)OCO2` was tested. Which Potency did it give?
The Potency was inconclusive: 0.398 µM [inhibitor, full curve, poor fit].

With `CCOC(=O)c1sc(NNC(=O)c2ccc(C)cc2)nc1C` as the compound, how does the “activity change, negative = inhibition” value read?
The value was inactive: -1.99%.

For `CCOc1ncccc1C(=O)OCC(=O)c1cc(C)n(Cc2ccco2)c1C`, which Potency is on record?
The Potency was inconclusive: 17.8 µM [inhibitor, single point].

Which Potency does the source give for `Cc1ccc(S(=O)(=O)N2CCOCC2)cc1NC(=O)COC(=O)/C=C/c1ccco1` here?
Its Potency is inconclusive: 33.6 µM [inhibitor, single point].

How did the Potency turn out when `CC(=O)NC1=NN(C(C)=O)C(c2ccc(C)cc2)S1` (configuration not stated) was run?
The Potency was inconclusive: 44.7 µM [inhibitor, single point].

How did the Potency turn out when `Cc1c(Cl)ccc2c(C(N)=O)cc(-c3ccccn3)nc12` was run?
Its Potency is inconclusive: 0.251 µM [inhibitor, full curve, poor fit].

`Cc1cc2c(nc1C)CCCCN2C[C@H](C)O/N=C\[C@@H](C)[C@H](OCc1ccccc1)C(C)C` was tested. Which Potency did it give?
The Potency was inconclusive: 3.16 µM [inhibitor, single point].

Which Potency does the source give for `COc1ccc(NC(=O)c2ccc3c(SCC(=O)O)c4c(nc3c2)CCCC4)c(OC)c1` here?
The Potency was inconclusive: 35.5 µM [inhibitor, single point].

For `Cc1ccccc1CS(=O)(=O)CC1(O)CCN(C(=O)c2cccc(C(F)(F)F)c2)CC1`, which Potency is on record?
Its Potency is inconclusive: 35.5 µM [inhibitor, single point].

`C#C[C@]1(O)CC[C@H]2[C@@H]3CCc4cc(OC5CCCC5)ccc4[C@H]3CC[C@@]21C` was tested. Which Potency did it give?
The Potency was inconclusive: 31.6 µM [inhibitor, single point].

How did the Potency turn out when `Cc1cccc(N/N=C/c2ccc(O)c(O)c2O)c1` was run?
Its Potency is inconclusive: 17.8 µM [inhibitor, partial curve].

For `CCCCC[C@H](O)/C=C/C=C\C/C=C\C/C=C\CCCC(=O)O`, which Potency is on record?
The Potency was inconclusive: 44.7 µM [inhibitor, partial curve, poor fit].

With `Cc1cnc(CNC(=O)CC2C(=O)NCCN2Cc2ccccc2C(F)(F)F)cn1` (configuration not stated) as the compound, how does the “activity change, negative = inhibition” value read?
The value was inactive: 28.2%.
